From the supplement of paper PMC10849652
The list shows a part of the results.

Protein sequences, listed by entry. Tags and fused reporters are not part of them. Lines headed by an entry give the natural chain unless they say otherwise; changes in a name come on top.
UniProt Q9H1E3: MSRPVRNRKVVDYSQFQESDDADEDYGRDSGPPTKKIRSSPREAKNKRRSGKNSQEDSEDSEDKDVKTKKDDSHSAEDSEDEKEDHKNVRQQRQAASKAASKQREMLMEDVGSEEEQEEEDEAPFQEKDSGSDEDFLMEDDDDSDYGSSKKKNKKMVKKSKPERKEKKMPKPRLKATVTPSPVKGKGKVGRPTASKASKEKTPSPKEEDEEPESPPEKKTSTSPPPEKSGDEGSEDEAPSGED
UniProt P22392, whole entry, looked up: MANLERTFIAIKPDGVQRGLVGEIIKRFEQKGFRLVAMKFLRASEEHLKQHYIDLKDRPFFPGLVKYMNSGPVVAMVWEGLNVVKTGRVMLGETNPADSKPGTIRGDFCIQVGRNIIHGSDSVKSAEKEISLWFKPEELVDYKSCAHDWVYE
UniProt P55786: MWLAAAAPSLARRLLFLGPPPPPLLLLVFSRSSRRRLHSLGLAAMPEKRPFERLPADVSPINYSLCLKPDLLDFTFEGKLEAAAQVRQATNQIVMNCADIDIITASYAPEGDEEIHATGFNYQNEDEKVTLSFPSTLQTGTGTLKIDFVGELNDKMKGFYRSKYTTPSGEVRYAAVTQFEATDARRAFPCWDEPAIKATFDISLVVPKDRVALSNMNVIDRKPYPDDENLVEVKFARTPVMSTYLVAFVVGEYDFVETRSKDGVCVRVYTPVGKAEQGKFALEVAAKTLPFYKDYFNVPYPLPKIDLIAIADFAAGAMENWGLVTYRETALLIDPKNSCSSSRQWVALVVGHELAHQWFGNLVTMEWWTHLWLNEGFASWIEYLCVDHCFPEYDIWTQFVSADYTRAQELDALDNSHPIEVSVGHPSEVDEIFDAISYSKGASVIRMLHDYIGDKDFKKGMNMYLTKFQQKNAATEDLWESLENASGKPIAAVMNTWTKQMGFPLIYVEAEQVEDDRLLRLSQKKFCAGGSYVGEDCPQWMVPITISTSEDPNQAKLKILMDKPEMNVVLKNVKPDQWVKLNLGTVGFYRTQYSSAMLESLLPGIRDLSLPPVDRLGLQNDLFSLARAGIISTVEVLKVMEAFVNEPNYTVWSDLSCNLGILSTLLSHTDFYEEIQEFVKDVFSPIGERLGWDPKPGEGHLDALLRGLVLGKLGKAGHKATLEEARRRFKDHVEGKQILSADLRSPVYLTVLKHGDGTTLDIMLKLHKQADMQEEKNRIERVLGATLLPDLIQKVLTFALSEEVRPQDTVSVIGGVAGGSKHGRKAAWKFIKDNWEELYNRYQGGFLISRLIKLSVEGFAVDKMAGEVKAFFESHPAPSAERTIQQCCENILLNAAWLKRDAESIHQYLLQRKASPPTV
UniProt Q16656: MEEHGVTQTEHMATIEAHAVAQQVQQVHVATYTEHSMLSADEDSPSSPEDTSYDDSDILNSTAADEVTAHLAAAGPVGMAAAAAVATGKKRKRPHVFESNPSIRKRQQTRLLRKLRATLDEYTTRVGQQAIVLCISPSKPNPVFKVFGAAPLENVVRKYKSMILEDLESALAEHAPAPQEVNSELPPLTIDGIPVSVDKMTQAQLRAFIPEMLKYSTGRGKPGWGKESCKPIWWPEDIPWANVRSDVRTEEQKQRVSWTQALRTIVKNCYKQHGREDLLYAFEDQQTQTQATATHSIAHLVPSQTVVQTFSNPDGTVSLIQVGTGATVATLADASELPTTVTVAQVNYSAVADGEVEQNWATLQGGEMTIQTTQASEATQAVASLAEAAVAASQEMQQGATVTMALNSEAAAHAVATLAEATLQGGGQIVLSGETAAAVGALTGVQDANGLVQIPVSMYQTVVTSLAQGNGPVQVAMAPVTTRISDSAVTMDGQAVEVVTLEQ
UniProt P46531, whole entry, looked up: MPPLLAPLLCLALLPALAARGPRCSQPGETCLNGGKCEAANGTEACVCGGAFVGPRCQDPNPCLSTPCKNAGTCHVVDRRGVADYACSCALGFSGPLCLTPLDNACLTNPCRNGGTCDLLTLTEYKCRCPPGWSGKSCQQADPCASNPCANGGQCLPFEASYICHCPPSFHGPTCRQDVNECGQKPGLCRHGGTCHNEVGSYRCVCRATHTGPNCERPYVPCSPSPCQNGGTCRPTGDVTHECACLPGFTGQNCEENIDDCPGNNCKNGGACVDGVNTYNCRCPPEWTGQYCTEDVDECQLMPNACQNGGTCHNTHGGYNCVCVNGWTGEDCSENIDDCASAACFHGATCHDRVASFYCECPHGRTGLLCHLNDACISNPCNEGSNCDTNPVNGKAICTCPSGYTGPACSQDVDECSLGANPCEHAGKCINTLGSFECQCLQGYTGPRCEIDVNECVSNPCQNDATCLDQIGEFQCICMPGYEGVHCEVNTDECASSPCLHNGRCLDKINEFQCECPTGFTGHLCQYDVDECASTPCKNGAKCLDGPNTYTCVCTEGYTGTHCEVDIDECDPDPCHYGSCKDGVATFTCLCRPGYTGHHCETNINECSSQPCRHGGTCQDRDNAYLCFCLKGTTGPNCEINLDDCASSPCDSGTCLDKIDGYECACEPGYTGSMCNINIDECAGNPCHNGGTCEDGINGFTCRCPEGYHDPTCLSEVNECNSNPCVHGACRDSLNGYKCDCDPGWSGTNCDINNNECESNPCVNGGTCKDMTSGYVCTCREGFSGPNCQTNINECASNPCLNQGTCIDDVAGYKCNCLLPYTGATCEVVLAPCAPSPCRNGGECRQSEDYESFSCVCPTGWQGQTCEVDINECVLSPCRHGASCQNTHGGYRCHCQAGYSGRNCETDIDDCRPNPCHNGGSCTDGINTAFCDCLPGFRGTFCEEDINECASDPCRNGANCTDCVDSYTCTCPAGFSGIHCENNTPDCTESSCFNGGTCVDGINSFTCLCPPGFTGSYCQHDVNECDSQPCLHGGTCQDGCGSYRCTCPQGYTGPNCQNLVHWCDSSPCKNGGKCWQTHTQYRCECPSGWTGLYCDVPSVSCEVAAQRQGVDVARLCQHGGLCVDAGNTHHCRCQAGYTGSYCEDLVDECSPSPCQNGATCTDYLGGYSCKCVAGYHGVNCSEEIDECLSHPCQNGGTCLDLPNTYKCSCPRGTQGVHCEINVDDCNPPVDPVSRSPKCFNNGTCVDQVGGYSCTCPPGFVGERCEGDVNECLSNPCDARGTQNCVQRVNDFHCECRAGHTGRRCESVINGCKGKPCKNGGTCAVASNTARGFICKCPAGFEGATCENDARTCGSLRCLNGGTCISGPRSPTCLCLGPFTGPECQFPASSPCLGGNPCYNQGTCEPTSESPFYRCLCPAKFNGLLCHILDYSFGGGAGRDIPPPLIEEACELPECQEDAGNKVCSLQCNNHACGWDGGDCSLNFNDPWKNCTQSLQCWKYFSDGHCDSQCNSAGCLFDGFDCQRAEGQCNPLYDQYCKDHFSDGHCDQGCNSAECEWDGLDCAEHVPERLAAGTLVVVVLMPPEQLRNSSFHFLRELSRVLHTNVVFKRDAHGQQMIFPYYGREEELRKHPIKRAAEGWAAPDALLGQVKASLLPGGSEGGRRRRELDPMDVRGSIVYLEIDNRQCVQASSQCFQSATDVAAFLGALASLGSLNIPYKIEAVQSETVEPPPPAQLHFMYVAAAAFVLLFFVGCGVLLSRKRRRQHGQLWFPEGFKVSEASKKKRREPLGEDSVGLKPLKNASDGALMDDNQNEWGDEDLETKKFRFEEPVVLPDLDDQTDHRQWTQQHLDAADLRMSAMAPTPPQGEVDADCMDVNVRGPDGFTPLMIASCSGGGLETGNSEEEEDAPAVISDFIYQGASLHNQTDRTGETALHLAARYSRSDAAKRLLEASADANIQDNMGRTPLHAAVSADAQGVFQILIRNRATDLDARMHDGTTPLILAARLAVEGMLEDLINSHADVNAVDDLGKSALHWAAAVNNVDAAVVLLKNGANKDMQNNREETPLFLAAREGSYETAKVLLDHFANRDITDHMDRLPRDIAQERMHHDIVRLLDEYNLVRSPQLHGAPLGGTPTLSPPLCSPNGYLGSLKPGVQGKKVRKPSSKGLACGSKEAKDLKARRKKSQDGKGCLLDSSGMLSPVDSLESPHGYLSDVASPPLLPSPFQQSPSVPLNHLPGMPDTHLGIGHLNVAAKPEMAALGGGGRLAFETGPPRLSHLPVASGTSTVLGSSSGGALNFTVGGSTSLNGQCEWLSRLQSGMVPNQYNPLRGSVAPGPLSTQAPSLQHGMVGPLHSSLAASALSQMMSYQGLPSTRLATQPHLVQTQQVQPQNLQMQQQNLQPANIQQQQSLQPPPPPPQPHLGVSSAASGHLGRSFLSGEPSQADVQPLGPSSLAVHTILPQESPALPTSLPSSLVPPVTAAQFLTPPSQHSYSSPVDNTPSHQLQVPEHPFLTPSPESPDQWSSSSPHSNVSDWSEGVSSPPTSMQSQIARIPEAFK
UniProt Q9H6R4: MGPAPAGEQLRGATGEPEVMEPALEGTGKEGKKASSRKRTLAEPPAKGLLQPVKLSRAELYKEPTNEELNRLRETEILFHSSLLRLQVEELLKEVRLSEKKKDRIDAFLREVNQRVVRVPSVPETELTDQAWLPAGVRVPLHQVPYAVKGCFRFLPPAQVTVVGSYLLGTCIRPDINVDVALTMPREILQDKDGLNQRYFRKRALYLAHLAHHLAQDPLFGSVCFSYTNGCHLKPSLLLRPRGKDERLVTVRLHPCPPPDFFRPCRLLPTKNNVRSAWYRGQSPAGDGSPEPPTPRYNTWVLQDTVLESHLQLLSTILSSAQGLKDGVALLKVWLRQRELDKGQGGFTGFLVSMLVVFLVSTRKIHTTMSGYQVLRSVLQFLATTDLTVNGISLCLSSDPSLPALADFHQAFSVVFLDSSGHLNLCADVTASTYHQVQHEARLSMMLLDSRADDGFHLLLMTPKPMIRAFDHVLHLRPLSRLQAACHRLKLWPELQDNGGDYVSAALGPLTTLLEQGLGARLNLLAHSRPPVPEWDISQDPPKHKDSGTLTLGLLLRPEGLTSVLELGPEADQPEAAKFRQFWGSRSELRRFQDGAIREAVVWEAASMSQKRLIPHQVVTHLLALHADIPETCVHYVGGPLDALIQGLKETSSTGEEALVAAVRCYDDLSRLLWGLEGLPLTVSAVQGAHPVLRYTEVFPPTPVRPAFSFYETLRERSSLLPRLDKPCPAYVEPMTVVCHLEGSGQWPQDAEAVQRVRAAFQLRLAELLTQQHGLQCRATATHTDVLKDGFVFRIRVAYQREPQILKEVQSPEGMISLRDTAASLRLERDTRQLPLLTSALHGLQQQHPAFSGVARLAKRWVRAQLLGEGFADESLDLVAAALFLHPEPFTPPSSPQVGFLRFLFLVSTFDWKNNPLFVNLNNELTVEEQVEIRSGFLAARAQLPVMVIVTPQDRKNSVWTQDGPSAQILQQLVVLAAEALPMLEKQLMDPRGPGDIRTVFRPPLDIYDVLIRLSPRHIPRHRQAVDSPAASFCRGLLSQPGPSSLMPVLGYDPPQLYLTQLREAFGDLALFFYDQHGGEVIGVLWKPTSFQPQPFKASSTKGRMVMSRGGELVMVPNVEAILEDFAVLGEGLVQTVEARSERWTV
UniProt Q9ULX3: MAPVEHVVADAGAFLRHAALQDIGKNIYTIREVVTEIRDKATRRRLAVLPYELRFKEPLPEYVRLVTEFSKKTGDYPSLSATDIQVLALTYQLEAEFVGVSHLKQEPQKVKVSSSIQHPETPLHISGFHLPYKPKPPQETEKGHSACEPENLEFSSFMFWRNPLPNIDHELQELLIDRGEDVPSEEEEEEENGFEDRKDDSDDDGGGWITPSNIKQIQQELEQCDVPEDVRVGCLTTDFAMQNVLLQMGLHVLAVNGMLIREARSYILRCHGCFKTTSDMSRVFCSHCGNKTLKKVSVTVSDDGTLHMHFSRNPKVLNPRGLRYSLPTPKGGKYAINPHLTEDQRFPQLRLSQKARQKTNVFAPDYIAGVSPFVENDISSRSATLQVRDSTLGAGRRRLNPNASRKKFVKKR
UniProt Q13287: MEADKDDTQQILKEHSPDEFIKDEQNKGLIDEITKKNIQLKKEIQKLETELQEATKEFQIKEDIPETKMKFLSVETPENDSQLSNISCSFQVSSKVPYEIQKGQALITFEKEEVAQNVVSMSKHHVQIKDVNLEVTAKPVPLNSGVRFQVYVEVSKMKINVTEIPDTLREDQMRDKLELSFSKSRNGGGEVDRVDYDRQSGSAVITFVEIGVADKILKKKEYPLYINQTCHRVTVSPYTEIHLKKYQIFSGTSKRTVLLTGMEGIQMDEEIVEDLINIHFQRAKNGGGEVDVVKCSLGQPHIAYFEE
UniProt Q9NPE3: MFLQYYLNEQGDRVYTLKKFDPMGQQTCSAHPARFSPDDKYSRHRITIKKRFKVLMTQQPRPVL

Assays:
Assay in all cases: log2 fold change, soluble protein after heating vs DMSO (PISA); higher = thermal stabilisation; K562 lysate, 10 uM; active = over 0.2 and 3.5 SD of the protein, either way, in both replicates (recomputed)
nilotinib = compound: Cc1cn(-c2cc(NC(=O)c3ccc(C)c(Nc4nccc(-c5cccnc5)n4)c3)cc(C(F)(F)F)c2)cn1 [nilotinib]
Summary of the method: (§1)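 Quantification was by TMTpro 16plex LC-MS/MS with equalised channel sums, applied to the supernatant after 21,000xg for 90 min. Samples were crude K562 extract at 1 mg/mL protein in PBS pH 7.4 with 1 mM MgCl2, treated with 10 μM compound for 30 min, heated for 3 min across 48°C-58°C, pooled and brought to 0.5% NP-40 at 4°C. Values are log-two fold changes in thermal stability relative to solvent controls, from duplicates.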

[1] = compound: Cc1nc(Nc2n[nH]c3c2CN(C(=O)N[C@H](CN(C)C)c2ccccc2)C3(C)C)c2sccc2n1
Summary of the method: as §1

dasatinib = compound: Cc1nc(Nc2ncc(C(=O)Nc3c(C)cccc3Cl)s2)cc(N2CCN(CCO)CC2)n1 [dasatinib]
Summary of the method: as §1

[2] = compound: Cc1ncc(-c2ccnc(Nc3ccc(S(C)(=O)=O)cc3)n2)n1C(C)C
Summary of the method: as §1

[3] = compound: Cn1cc(-c2ccc3c(c2)CCN3C(=O)Cc2cccc(C(F)(F)F)c2)c2c(N)ncnc21
Summary of the method: as §1

quisinostat = compound: Cn1cc(CNCC2CCN(c3ncc(C(=O)NO)cn3)CC2)c2ccccc21 [quisinostat]
Summary of the method: as §1

tipifarnib = compound: Cn1cncc1[C@@](N)(c1ccc(Cl)cc1)c1ccc2c(c1)c(-c1cccc(Cl)c1)cc(=O)n2C [tipifarnib]
Summary of the method: as §1

[4] = compound: NC(=O)Nc1cc(-c2cccc(F)c2)sc1C(=O)N[C@H]1CCCNC1
Summary of the method: as §1

[5] = compound: NC(=O)c1cnc(N[C@@H]2CCCC[C@@H]2N)nc1Nc1cccc(-n2nccn2)c1
Summary of the method: as §1

[6] = compound: NC1(c2ccc(-c3nc4ccn5c(=O)[nH]nc5c4cc3-c3ccccc3)cc2)CCC1
Summary of the method: as §1

[7] = compound: NCC(=O)Nc1ccc(-n2nc(C(F)(F)F)cc2-c2ccc3c(ccc4ccccc43)c2)cc1
Summary of the method: as §1

vorinostat = compound: O=C(CCCCCCC(=O)Nc1ccccc1)NO [vorinostat]
Summary of the method: as §1

silmitasertib = compound: O=C(O)c1ccc2c(c1)nc(Nc1cccc(Cl)c1)c1ccncc12 [silmitasertib]
Summary of the method: as §1

[8] = compound: O=C1NC(=O)C(c2cnc3ccccn23)=C1c1cn2c3c(cc(F)cc13)CN(C(=O)N1CCCCC1)CC2
Summary of the method: as §1

entospletinib = compound: c1cn2cc(-c3ccc4cn[nH]c4c3)nc(Nc3ccc(N4CCOCC4)cc3)c2n1 [entospletinib]
Summary of the method: as §1

Measured: log2 fold change

NUCKS1 (UniProt Q9H1E3)
inactive: nilotinib 0.015 | [1] -0.005 | dasatinib -0.006 | [2] 0.002 | [3] -0.075 | quisinostat 0.023 | tipifarnib 0.02 | [4] -0.067 | [5] -0.005 | [6] -0.035 | [7] -0.009 | vorinostat 0.136 | silmitasertib -0.019 | [8] 0.022 | entospletinib 0

NOP53 (UniProt Q9NZM5)
inactive: nilotinib -0.019 | [1] 0.028 | dasatinib -0.015 | [2] -0.065 | [3] 0.1 | quisinostat 0.035 | tipifarnib -0.226 | [4] -0.006 | [5] 0.003 | [6] -0.007 | [7] -0.028 | vorinostat 0.156 | silmitasertib -0.01 | [8] 0.006 | entospletinib -0.021

NUMBL (UniProt Q9Y6R0)
inactive: nilotinib 0.038 | [1] -0.013 | dasatinib -0.041 | [2] -0.12 | [3] 0.219 | quisinostat 0.04 | tipifarnib -0.06 | [5] -0.055 | [6] -0.046 | [7] 0.04 | vorinostat -0.237 | silmitasertib 0.201 | [8] 0.021 | entospletinib 0.102
active: [4] -0.415

NOC2L (UniProt Q9Y3T9)
inactive: nilotinib 0.027 | [1] 0.022 | dasatinib -0.03 | [2] -0.046 | [3] -0.052 | quisinostat -0.082 | tipifarnib -0.087 | [4] 0.058 | [5] 0.014 | [6] -0.019 | [7] -0.055 | vorinostat -0.126 | silmitasertib 0.031 | [8] 0.009 | entospletinib 0.028

NME2 isoform 2 (UniProt P22392)
inactive: nilotinib 0.021 | [1] 0.001 | dasatinib 0.015 | [2] -0.005 | [3] -0.01 | quisinostat -0.009 | tipifarnib 0.025 | [4] -0.009 | [5] -0.017 | [6] 0 | [7] 0.035 | vorinostat 0.133 | silmitasertib -0.023 | [8] 0.004 | entospletinib 0.014

NPEPPS (UniProt P55786)
inactive: nilotinib 0.01 | [1] 0.005 | dasatinib 0.01 | [2] 0.008 | [3] 0.007 | quisinostat 0.001 | tipifarnib 0.001 | [4] -0.001 | [5] -0.003 | [6] 0.012 | [7] 0.01 | vorinostat 0.141 | silmitasertib -0.006 | [8] -0.005 | entospletinib -0.001

NRF1 isoform 4 (UniProt Q16656)
inactive: nilotinib 0.054 | [1] -0.005 | dasatinib -0.016 | [2] 0.042 | [3] 0.048 | quisinostat -0.068 | tipifarnib 0.034 | [4] 0.01 | [5] -0.012 | [6] 0.017 | [7] 0.005 | vorinostat 0.033 | silmitasertib -0.004 | [8] 0.008 | entospletinib 0.032

NOTCH1 (UniProt P46531)
inactive: nilotinib -0.127 | [1] 0.077 | dasatinib 0.001 | [2] 0.019 | [3] 0.047 | quisinostat -0.083 | tipifarnib 0.006 | [4] 0.044 | [5] 0.094 | [6] -0.022 | [7] -0.125 | vorinostat 0.118 | silmitasertib 0.021 | [8] 0.014 | entospletinib 0.008

NOL6 (UniProt Q9H6R4)
inactive: nilotinib 0.015 | [1] 0.007 | dasatinib 0.005 | [2] 0.053 | [3] 0 | quisinostat -0.02 | tipifarnib -0.065 | [4] 0.075 | [5] 0.05 | [6] -0.022 | [7] 0.012 | vorinostat -0.126 | silmitasertib 0.048 | [8] 0.103 | entospletinib 0.021

Fetched one by one from the list above, 2 records:
NME2 isoform 2 (UniProt P22392)
inactive: nilotinib 0.021 | [1] 0.001 | dasatinib 0.015 | [2] -0.005 | [3] -0.01 | quisinostat -0.009 | tipifarnib 0.025 | [4] -0.009 | [5] -0.017 | [6] 0 | [7] 0.035 | vorinostat 0.133 | silmitasertib -0.023 | [8] 0.004 | entospletinib 0.014

NOL6 (UniProt Q9H6R4)
inactive: nilotinib 0.015 | [1] 0.007 | dasatinib 0.005 | [2] 0.053 | [3] 0 | quisinostat -0.02 | tipifarnib -0.065 | [4] 0.075 | [5] 0.05 | [6] -0.022 | [7] 0.012 | vorinostat -0.126 | silmitasertib 0.048 | [8] 0.103 | entospletinib 0.021

Remaining list, next part:

NOB1 (UniProt Q9ULX3)
inactive: nilotinib 0.018 | [1] -0.026 | dasatinib 0.004 | [2] -0.066 | [3] 0.044 | quisinostat 0.041 | tipifarnib 0 | [4] 0.043 | [5] -0.018 | [6] 0.058 | [7] 0.017 | vorinostat -0.128 | silmitasertib 0.048 | [8] -0.024 | entospletinib 0.024

NRBP2 (UniProt Q9NSY0)
inactive: nilotinib -0.065 | [1] -0.027 | dasatinib 0.007 | [2] -0.008 | [3] 0.065 | quisinostat -0.104 | tipifarnib -0.034 | [4] 0.047 | [5] -0.013 | [6] -0.011 | [7] 0.122 | vorinostat 0.034 | silmitasertib 0.01 | [8] 0.018 | entospletinib 0.059

NRBF2 (UniProt Q96F24)
inactive: nilotinib -0.023 | [1] 0.051 | dasatinib 0.038 | [2] 0.016 | [3] 0.054 | quisinostat 0.024 | tipifarnib 0.004 | [4] 0.004 | [5] -0.009 | [6] 0.033 | [7] -0.008 | vorinostat -0.106 | silmitasertib 0.063 | [8] -0.023 | entospletinib -0.033

NMI (UniProt Q13287)
inactive: nilotinib -0.008 | [1] -0.013 | dasatinib -0.012 | [2] -0.001 | [3] 0.002 | quisinostat 0.017 | tipifarnib 0.012 | [4] -0.006 | [5] 0.013 | [6] -0.008 | [7] 0.025 | vorinostat 0.075 | silmitasertib -0.015 | [8] -0.014 | entospletinib -0.024

NOP10 (UniProt Q9NPE3)
inactive: nilotinib -0.067 | [1] -0.044 | dasatinib 0.027 | [2] -0.018 | [3] 0.022 | quisinostat 0.04 | tipifarnib 0.062 | [4] -0.03 | [5] 0.027 | [6] 0.075 | [7] -0.047 | vorinostat 0.14 | silmitasertib -0.074 | [8] -0.015 | entospletinib -0.015

NSDHL (UniProt Q15738)
inactive: nilotinib 0.012 | [1] 0.074 | dasatinib 0.001 | [2] 0.006 | [3] -0.039 | quisinostat -0.044 | tipifarnib 0.012 | [4] 0.002 | [5] 0.003 | [6] -0.001 | [7] -0.031 | vorinostat 0.004 | silmitasertib 0.063 | [8] -0.041 | entospletinib -0.021

NSUN6 (UniProt Q8TEA1)
inactive: nilotinib -0.025 | [1] 0.006 | dasatinib -0.045 | [2] -0.027 | [3] 0.03 | quisinostat 0.055 | tipifarnib 0.007 | [4] -0.013 | [5] 0.015 | [6] 0.023 | [7] 0.051 | vorinostat -0.132 | silmitasertib 0.003 | [8] 0.025 | entospletinib 0.01

NSRP1 (UniProt Q9H0G5)
inactive: nilotinib 0.011 | [1] 0.023 | dasatinib 0.033 | [2] 0.013 | [3] -0.023 | quisinostat -0.008 | tipifarnib -0.04 | [4] -0.027 | [5] -0.02 | [6] 0.023 | [7] -0.01 | vorinostat 0.022 | silmitasertib -0.013 | [8] 0.003 | entospletinib 0.011

NUDCD1 (UniProt Q96RS6)
inactive: nilotinib 0.01 | [1] -0.007 | dasatinib -0.015 | [2] 0.029 | [3] 0 | quisinostat -0.026 | tipifarnib -0.011 | [4] 0.026 | [5] -0.005 | [6] 0.018 | [7] 0 | vorinostat -0.02 | silmitasertib 0.009 | [8] 0.012 | entospletinib 0.012

NUDT12 (UniProt Q9BQG2)
inactive: nilotinib 0.033 | [1] 0.008 | dasatinib 0.043 | [2] 0.006 | [3] -0.033 | quisinostat -0.068 | tipifarnib -0.014 | [4] 0.013 | [5] -0.01 | [6] -0.009 | [7] 0.046 | vorinostat -0.119 | silmitasertib 0.098 | [8] -0.015 | entospletinib 0.014
